According to article PMC9253567:
Results are given in words; binding and its absence hold for the method and conditions named. Binding seen in cells or lysates may run through a third protein. Some binding calls cover weakened binding; strength is not graded here.

Protein sequences, listed by entry. Tags and fused reporters are not part of them. Lines headed by an entry give the natural chain unless they say otherwise; changes in a name come on top. Chains listed by the source or under a name are the forms on record and can include a tag or linker.
UniProt Q7Z2W4: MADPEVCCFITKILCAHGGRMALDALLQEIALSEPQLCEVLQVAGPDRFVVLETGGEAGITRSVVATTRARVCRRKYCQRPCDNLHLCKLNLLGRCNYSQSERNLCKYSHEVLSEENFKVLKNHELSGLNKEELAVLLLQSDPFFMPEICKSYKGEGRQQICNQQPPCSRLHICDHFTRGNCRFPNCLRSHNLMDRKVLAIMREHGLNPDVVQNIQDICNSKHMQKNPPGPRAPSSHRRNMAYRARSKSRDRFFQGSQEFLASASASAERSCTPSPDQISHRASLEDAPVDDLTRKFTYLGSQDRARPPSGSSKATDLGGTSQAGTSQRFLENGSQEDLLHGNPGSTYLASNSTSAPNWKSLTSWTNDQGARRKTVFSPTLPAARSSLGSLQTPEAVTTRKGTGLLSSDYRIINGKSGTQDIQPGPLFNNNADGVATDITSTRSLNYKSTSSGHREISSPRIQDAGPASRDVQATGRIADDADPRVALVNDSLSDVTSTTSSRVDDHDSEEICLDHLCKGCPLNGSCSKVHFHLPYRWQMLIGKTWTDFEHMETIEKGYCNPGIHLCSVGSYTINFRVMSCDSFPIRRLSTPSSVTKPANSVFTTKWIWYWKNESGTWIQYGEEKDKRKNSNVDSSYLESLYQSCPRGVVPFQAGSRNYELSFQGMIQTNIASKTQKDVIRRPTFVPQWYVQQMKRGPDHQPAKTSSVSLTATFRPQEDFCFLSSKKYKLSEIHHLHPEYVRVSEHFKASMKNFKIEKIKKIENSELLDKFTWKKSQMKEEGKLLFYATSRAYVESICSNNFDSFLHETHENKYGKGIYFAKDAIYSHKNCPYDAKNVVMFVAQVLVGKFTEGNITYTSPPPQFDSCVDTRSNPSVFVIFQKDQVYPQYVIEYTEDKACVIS
FLAG-tagged ZAPS WT (zinc finger antiviral protein, short isoform) (Q7Z2W4, form named): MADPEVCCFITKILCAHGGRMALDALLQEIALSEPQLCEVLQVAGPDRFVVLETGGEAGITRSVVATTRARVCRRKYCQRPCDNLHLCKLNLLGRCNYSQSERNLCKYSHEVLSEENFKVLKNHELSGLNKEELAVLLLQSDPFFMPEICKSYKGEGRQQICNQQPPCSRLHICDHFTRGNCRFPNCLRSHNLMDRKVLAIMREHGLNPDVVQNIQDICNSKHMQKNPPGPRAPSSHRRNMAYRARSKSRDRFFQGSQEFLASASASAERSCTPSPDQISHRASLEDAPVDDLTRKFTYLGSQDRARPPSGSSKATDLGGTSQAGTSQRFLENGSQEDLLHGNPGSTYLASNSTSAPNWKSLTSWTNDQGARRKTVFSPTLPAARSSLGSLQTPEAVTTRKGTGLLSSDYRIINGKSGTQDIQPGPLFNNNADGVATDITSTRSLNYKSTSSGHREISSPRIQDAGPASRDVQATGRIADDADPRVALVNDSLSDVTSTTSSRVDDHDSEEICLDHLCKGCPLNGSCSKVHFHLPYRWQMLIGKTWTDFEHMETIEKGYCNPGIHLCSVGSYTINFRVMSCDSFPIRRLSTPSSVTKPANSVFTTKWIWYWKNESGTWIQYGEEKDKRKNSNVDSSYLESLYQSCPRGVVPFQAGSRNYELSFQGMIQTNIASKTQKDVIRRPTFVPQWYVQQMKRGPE
UniProt Q14258: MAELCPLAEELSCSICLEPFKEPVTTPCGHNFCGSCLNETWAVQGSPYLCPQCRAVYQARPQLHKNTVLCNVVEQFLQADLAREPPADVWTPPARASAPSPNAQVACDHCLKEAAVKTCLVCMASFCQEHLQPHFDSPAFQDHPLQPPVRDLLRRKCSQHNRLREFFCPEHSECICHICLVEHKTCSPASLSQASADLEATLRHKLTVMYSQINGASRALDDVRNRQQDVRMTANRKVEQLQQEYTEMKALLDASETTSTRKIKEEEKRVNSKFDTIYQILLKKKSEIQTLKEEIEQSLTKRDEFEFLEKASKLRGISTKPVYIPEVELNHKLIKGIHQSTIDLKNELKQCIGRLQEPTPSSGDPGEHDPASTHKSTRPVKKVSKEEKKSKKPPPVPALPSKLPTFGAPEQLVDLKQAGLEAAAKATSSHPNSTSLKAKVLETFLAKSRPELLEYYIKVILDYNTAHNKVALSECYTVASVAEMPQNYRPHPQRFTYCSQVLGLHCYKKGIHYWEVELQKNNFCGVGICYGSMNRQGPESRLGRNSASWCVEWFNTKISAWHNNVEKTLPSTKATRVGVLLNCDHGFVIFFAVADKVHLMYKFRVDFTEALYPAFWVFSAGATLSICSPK
myc-tagged TRIM25 7KA (lysine-rich 7K motif in the L2 linker replaced with alanines) (Q14258, form named): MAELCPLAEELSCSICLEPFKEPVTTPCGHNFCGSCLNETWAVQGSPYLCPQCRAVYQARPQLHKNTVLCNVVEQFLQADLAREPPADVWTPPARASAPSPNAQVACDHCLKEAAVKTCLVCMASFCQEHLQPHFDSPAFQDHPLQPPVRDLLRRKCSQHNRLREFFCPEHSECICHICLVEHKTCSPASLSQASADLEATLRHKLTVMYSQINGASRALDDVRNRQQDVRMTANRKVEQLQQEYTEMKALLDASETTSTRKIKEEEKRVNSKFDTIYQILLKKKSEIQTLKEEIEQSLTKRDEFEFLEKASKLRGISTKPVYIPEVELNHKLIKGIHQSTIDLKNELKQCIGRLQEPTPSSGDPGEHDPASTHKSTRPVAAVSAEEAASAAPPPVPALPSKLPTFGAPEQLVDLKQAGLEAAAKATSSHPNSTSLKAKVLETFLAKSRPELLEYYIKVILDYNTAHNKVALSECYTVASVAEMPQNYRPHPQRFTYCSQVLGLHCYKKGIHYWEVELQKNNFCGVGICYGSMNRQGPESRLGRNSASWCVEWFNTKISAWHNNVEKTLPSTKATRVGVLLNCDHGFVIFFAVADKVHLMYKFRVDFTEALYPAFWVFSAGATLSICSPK

Columns and labels:
[1] = biological target: FLAG-tagged ZAPL WT (zinc finger antiviral protein, long isoform) (human) (UniProt Q7Z2W4); assay: co-IP; FLAG IP (anti-FLAG beads) of FLAG-ZAPS or FLAG-ZAPL WT from lysates of TRIM25 KO 293T cells co-transfected with myc-TRIM25 WT or mutants (maximised transfected amounts); myc-TRIM25 detected by immunoblot; FLAG IP buffer, 4°C, 45 min; normalised to input, quantified with ImageJ
[2] = biological target: FLAG-tagged ZAPS WT (zinc finger antiviral protein, short isoform) (human) (UniProt Q7Z2W4); assay: as above

## myc-tagged TRIM25 7KA (lysine-rich 7K motif in the L2 linker replaced with alanines) (from UniProt Q14258 1-630)
[1]
  binding: binds
[2]
  binding: binds

## myc-tagged TRIM25 WT (tripartite motif-containing protein 25) (from UniProt Q14258 1-630)
[1]
  binding: binds
